Source: PubChem BioAssay AID200 (DTP/NCI, 2004)
The list is a part of this screen's results and no random one: it gathers tests that were run many times, whatever their T/C, doses with no T/C, and many T/C values between a quarter and a half above the control. Further doses and runs are listed elsewhere. T/C gives the treated animals as a percentage of the vehicle group. Some entries give survivors of the animals treated and no T/C: the source holds a T/C of zero for them, seemingly a mark for toxic or unscored doses. Some doses without a T/C left all or most animals alive at the check, yet need not have been tolerated: the source hardly ever lists a survival T/C far under the control, and the zero likely stands for such cases as well. Counts of survivors are from the toxicity check (mostly the fifth day) where no day follows; animals may have died later. Schedules are NCI's codes, read here as Q, the interval in days (D) or hours (H), X, the number of doses. Some doses were run more than once; the values are given in rising order. Where survival is the endpoint, the PubChem record calls one and a half times the control and up active, and a quarter to a half above the control has no call in these data; cut-offs in other NCI protocols can differ. Some T/C values are followed by the survivors on the day toxicity was checked, most often the fifth; where none is given, no animal had died by that day.

System: B6C3F1 mice, B16 melanoma ip, median survival T/C
Test: NCI In Vivo Anticancer Drug Screen. Data for tumor model B16 Melanoma (intraperitoneal) in B6C3F1 mice
Conditions: T/C endpoint: median survival time, higher T/C = longer survival
In short: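 Mice bearing transplanted tumor were dosed with compound or vehicle, and survival was recorded. Activity is expressed as the treated-group measurement (T) divided by the vehicle control measurement (C).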

[1] = dose: 200.0 mg/kg/injection, schedule: Q01DX009 (ip), vehicle: saline with Tween-80
[2] = dose: 400.0 mg/kg/injection, schedule: Q01DX009 (ip), vehicle: saline with Tween-80
[3] = dose: 200.0 mg/kg/injection, schedule: Q01DX009 (ip), vehicle: saline

CCCN(CCC)C(C)C(O)c1cc2c(c3ccccc13)CCCC2 (stereo not drawn)
T/C (dose: 0.19 mg/kg/injection, schedule: Q01DX009 (ip), vehicle: Klucel (hydroxypropylcellulose) (HPC)): 127 % of control
survivor count (dose: 0.78 mg/kg/injection, schedule: Q01DX009 (ip), vehicle: Klucel (hydroxypropylcellulose) (HPC)): 9 of 10
survivor count (dose: 12.5 mg/kg/injection, schedule: Q01DX009 (ip), vehicle: Klucel (hydroxypropylcellulose) (HPC)): 10 of 10
survivor count (dose: 25.0 mg/kg/injection, schedule: Q01DX009 (ip), vehicle: Klucel (hydroxypropylcellulose) (HPC)): 10 of 10

C[Si](C)(CCl)N[Si](C)(C)CCl
survivor count [1]: 10 of 10
survivor count [2]: 10 of 10

CC1=CC(=NN=c2cc(C)n([O-])c(C)c2)C=C(C)[N+]1=O
T/C [1]: 129 % of control
survivor count (dose: 200.0 mg/kg/injection, schedule: Q01DX009 (ip), vehicle: suspension in saline): 7 of 10
survivor count [2]: 4 of 10
survivor count (dose: 400.0 mg/kg/injection, schedule: Q01DX009 (ip), vehicle: suspension in saline): 0 of 10

O=[n+]1c2ccccc2n([O-])c2ccccc21.[Cl][Ni][Cl]
survivor count (dose: 50.0 mg/kg/injection, schedule: Q01DX009 (ip), vehicle: saline with Tween-80): 7 of 10

COC1C(/C=C/C(C)=O)OC2OC(C)(C)OC21 (stereo not drawn)
survivor count [3]: 4 of 10 and 6 of 10

COCCCNC1=C(C#N)C(=O)NC(c2cccc([N+](=O)[O-])c2)S1 (stereo not drawn)
T/C (dose: 12.5 mg/kg/injection, schedule: Q01DX009 (ip), vehicle: saline with Tween-80, evaluated on day 40): 135 % of control
T/C (dose: 12.5 mg/kg/injection, schedule: Q01DX009 (ip), vehicle: saline with Tween-80, evaluated on day 45): 100 and 106 % of control
T/C (dose: 12.5 mg/kg/injection, schedule: Q01DX009 (ip), vehicle: saline with Tween-80, evaluated on day 60): 106 % of control
T/C (dose: 25.0 mg/kg/injection, schedule: Q01DX009 (ip), vehicle: saline with Tween-80, evaluated on day 40): 118 % of control
T/C (dose: 25.0 mg/kg/injection, schedule: Q01DX009 (ip), vehicle: saline with Tween-80, evaluated on day 45): 113 and 120 % of control
T/C (dose: 25.0 mg/kg/injection, schedule: Q01DX009 (ip), vehicle: saline with Tween-80, evaluated on day 60): 98 % of control
survivor count [1]: 10 of 10
survivor count [2]: 9 of 10

O=C(O)C1CC(c2ccccc2)=NN1c1ccccc1 (stereo not drawn)
survivor count (dose: 400.0 mg/kg/injection, schedule: Q01DX009 (ip), vehicle: water): 1 of 10

[Cl][Hg][Cl]
survivor count (dose: 1.0 mg/kg/injection, schedule: Q01DX009 (ip), vehicle: saline): 10 of 10
survivor count (dose: 2.0 mg/kg/injection, schedule: Q01DX009 (ip), vehicle: saline): 9 of 10 and 10 of 10
survivor count (dose: 4.0 mg/kg/injection, schedule: Q01DX009 (ip), vehicle: saline): 10 of 10
survivor count (dose: 8.0 mg/kg/injection, schedule: Q01DX009 (ip), vehicle: saline): 0 of 10
survivor count (dose: 16.0 mg/kg/injection, schedule: Q01DX009 (ip), vehicle: saline): 0 of 10
survivor count (dose: 32.0 mg/kg/injection, schedule: Q01DX009 (ip), vehicle: saline): 0 of 10

N=C(N)SCc1c2ccccc2c(CSC(=N)N)c2ccccc12
T/C (dose: 3.12 mg/kg/injection, schedule: Q01DX009 (ip), vehicle: saline): 144 % of control

CN(C)C(=O)SC1=C(c2c(Cl)cccc2Cl)C(=O)c2ccccc21
survivor count (dose: 400.0 mg/kg/injection, schedule: Q01DX009 (ip), vehicle: Klucel (hydroxypropylcellulose) (HPC)): 10 of 10

CO[C@H]1C[C@@H]2CC[C@@H](C)[C@@](O)(O2)C(=O)C(=O)N2CCCC[C@H]2C(=O)O[C@H]([C@H](C)C[C@@H]2CC[C@@H](O)[C@H](OC)C2)CC(=O)[C@H](C)C=C(C)[C@@H](O)[C@@H](OC)C(=O)[C@H](C)C[C@H](C)/C=C/C=C/C=C1C
T/C (dose: 190.0 mg/kg/injection, schedule: Q01DX001 (ip), vehicle: saline with Tween-80): 141 % of control
T/C (dose: 380.0 mg/kg/injection, schedule: Q01DX001 (ip), vehicle: saline with Tween-80): 125 % of control
T/C (dose: 760.0 mg/kg/injection, schedule: Q01DX001 (ip), vehicle: saline with Tween-80): 125 % of control

CC(=O)N(C)c1ccc(Nc2cc(C)[nH]c3ccc4ncnc4c23)cc1
T/C (dose: 6.25 mg/kg/injection, schedule: Q01DX009 (ip), vehicle: saline): 132 and 149 % of control
T/C (dose: 12.5 mg/kg/injection, schedule: Q01DX009 (ip), vehicle: saline): 144 % of control
T/C (dose: 25.0 mg/kg/injection, schedule: Q01DX009 (ip), vehicle: saline): 139 % of control [9 of 10 alive]
T/C (dose: 50.0 mg/kg/injection, schedule: Q01DX009 (ip), vehicle: saline): 149 % of control [9 of 10 alive]
survivor count (dose: 100.0 mg/kg/injection, schedule: Q01DX009 (ip), vehicle: saline): 9 of 10 and 10 of 10
survivor count [3]: 0 of 10
